According to PubChem BioAssay AID330 (DTP/NCI, 2004):
The list is a part of this screen's results and no random one: it gathers tests that were run many times, whatever their T/C, doses with no T/C, and many T/C values between a quarter and a half above the control. Further doses and runs are listed elsewhere. T/C: endpoint of the treated group in % of that of the vehicle group. Some entries give survivors of the animals treated and no T/C: the source holds a T/C of zero for them, seemingly a mark for toxic or unscored doses. Some survivor counts are full or nearly so, which does not show that the dose was tolerated: the source hardly ever lists a survival T/C far under the control, and the zero likely stands for such cases as well. Counts of survivors are from the toxicity check (mostly the fifth day) where no day follows; animals may have died later. Schedule codes are those of the source, read here as Q, the interval in days (D) or hours (H), X, the number of doses. Some entries were tested several times; their values stand side by side, smallest first.

Test system: P388 leukemia ip, CD2F1 mice, survival T/C
Assay: NCI In Vivo Anticancer Drug Screen. Data for tumor model P388 Leukemia (intraperitoneal) in CD2F1 (CDF1) mice
Conditions: T/C endpoint: median survival time, higher T/C = longer survival

NC(=O)CCCSC1=CC(=O)c2ccccc2C1=O was tested, and the survivor count (dose: 25.0 mg/kg/injection, schedule: Q04DX002 (ip), vehicle: saline with Tween-80) was 4 of 6, the survivor count (dose: 50.0 mg/kg/injection, schedule: Q04DX002 (ip), vehicle: saline with Tween-80) was 0 of 6 and the survivor count (dose: 100.0 mg/kg/injection, schedule: Q04DX002 (ip), vehicle: saline with Tween-80) was 0 of 6. For the same compound, the survivor count (dose: 200.0 mg/kg/injection, schedule: Q04DX002 (ip), vehicle: saline with Tween-80) was 0 of 6 and the survivor count (dose: 400.0 mg/kg/injection, schedule: Q04DX002 (ip), vehicle: saline with Tween-80) was 0 of 6.
With CN(C)CCc1ccccn1 the survivor count (dose: 100.0 mg/kg/injection, schedule: Q04DX003 (ip), vehicle: saline) was 4 of 6, the survivor count (dose: 200.0 mg/kg/injection, schedule: Q04DX003 (ip), vehicle: saline) was 2 of 6 and the survivor count (dose: 400.0 mg/kg/injection, schedule: Q04DX003 (ip), vehicle: saline) was 0 of 6.
In the case of OC(c1cc2ccc(C(F)(F)F)cc2c2cc(C(F)(F)F)ccc12)C1CCCCN1 (stereo unspecified), the survivor count (dose: 50.0 mg/kg/injection, schedule: Q01DX009 (ip), vehicle: saline with Tween-80) is reported as 2 of 6 and 4 of 6, the survivor count (dose: 100.0 mg/kg/injection, schedule: Q01DX009 (ip), vehicle: saline with Tween-80) is reported as 0 of 6 and the survivor count (dose: 200.0 mg/kg/injection, schedule: Q01DX009 (ip), vehicle: saline with Tween-80) is reported as 0 of 6.
